Assay results taken from publication PMC8042168, “The cell surface hyaluronidase TMEM2 regulates cell adhesion and migration via degradation of hyaluronan at focal adhesion sites” (The Journal of Biological Chemistry, 2021).
These are yes or no findings as the source states them, for the method shown. In cells and extracts the contact can be indirect. A result given as binding can be weak or reduced; the word gives no strength. Tags and fused reporters may be left off the sequences shown.

Biological target: T1, mCherry-tagged full-length mouse TMEM2 (transmembrane protein 2) (mouse) (UniProt Q5FWI3)
T1 sequence: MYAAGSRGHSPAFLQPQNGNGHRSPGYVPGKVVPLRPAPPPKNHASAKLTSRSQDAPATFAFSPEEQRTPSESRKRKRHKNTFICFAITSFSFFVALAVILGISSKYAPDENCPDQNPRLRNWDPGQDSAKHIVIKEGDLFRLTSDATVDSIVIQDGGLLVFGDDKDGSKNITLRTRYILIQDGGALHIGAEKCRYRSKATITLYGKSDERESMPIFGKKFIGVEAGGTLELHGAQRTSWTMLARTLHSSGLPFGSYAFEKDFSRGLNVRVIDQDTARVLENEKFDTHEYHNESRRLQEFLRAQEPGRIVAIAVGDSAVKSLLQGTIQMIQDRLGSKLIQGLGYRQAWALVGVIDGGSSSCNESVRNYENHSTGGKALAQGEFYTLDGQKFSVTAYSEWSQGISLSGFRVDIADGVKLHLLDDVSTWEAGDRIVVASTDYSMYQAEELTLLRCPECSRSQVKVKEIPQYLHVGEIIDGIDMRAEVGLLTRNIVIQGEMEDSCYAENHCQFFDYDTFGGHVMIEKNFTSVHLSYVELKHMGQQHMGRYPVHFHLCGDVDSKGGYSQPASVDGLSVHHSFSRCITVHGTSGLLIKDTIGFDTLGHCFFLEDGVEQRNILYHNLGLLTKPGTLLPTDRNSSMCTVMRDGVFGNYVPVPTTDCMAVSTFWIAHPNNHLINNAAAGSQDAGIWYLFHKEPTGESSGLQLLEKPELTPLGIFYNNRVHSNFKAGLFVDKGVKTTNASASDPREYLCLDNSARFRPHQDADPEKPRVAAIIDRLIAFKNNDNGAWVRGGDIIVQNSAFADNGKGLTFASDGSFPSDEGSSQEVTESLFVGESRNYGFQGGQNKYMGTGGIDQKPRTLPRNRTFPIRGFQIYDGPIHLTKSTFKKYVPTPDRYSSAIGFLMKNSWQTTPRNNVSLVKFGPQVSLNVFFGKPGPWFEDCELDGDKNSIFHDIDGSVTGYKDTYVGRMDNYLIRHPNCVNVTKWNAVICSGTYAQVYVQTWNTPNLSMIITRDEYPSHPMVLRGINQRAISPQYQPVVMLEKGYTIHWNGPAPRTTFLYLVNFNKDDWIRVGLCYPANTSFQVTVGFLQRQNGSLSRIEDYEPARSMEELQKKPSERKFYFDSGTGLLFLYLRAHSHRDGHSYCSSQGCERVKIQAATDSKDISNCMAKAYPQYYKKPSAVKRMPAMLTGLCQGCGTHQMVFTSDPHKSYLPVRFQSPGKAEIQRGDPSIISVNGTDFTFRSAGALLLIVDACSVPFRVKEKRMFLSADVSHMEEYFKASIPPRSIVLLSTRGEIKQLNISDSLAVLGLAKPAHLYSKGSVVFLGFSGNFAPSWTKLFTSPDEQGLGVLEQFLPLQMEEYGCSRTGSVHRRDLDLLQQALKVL
Assay: cross-linking + co-IP; mCherry-mTMEM2 U2OS cells on fibronectin treated with 1 mM membrane-impermeable DTSSP in HBSS, 30 min RT; RIPA lysate precipitated with RFP-Trap agarose overnight at 4 °C; blots for α5, β1 and mCherry

- binding: binds
Substance: integrin α5β1 (human (endogenous in U2OS)) (receptor)
